# Results reported in PubChem BioAssay AID624297 (National Center for Advancing Translational Sciences (NCATS), 2012).
# Where “and” joins values, the source holds several entries; their conditions need not be identical. Equal values may be shown once. Screen size: about 340,000 compounds; about 6,200 (1.8%) were called active. This list was built around the results that the source calls inconclusive (neither active nor inactive); the mix of calls is not that of the screen. Calls come from the whole dose curve; as a rule, active = well fitted activation curve with a large enough effect; inconclusive = small, poorly fitted or top-dose-only effect; inactive = no such curve, though single readings can be large or run the other way. A potency beside an inconclusive call is a rough fit, not a confirmed value.
# Assay: A quantitative high throughput screen for small molecules that induce DNA re-replication in SW480 colon adenocarcinoma cells. For re-replication activation: % of control where 0% means no effect. Note: nearly all actives have a fitted effect of over 55% in size.
# Conditions: Hoechst DNA content imaging, 48 h; re-replication activation: at 46.1 µM (top of the series) unless noted
# Outline: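 Image-based DNA-content assay: after two days of treatment, nuclei were labelled with the DNA dye Hoechst and imaged, and hits were compounds raising the count of nuclei showing high fluorescence intensity.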
# Potency is the fitted concentration of half-maximal effect.
Compound,re-replication activation,Potency
COc1ccc(S(=O)(=O)N2CCOCC2)cc1C(=O)N(C)Cc1ccccc1F,inactive: -10.1%,
CC(Oc1ccc2c3c(c(=O)oc2c1)CCCC3)C(=O)NCCCn1ccnc1 (configuration not stated),,"inconclusive: 32.6 µM [activator, single point]"
COc1ccc(C(C)=O)cc1CSc1nnc(Nc2ccccc2C)s1,,"inconclusive: 29.1 µM [activator, single point]"
CCOC(=O)c1cc(-c2ccccc2)sc1NC(=O)COC(=O)c1cccc(S(N)(=O)=O)c1,,"inconclusive: 23.1 µM [activator, single point]"
CCn1c(=N)c(S(=O)(=O)c2ccc(F)cc2)cc2c(=O)n3ccccc3nc21,,active: 20.6 µM
COc1ccccc1N1CCN(C2CCN(S(=O)(=O)c3ccc4ccccc4c3)CC2)CC1,inactive: 15.3%,
CCc1nc(N2CCC(C)CC2)c2oc3ccccc3c2n1,,"inconclusive: 25.9 µM [activator, single point]"
COc1ccc(-c2cc3nc(C)cc(N4CC(C)CC(C)C4)n3n2)cc1 (configuration not stated),,"inconclusive: 29.1 µM [activator, single point]"
Cc1ccc2oc(=O)n(CC(=O)OCCC(C)C)c2c1,,"inconclusive: 1.84 µM [activator, partial curve, poor fit]"
CC(C)OC(=O)c1ccc(NCc2cc(O)ccc2O)cc1Cl,,"inconclusive: 18.4 µM [activator, single point]"
COC(=O)c1ccc(COc2ccccc2/C=C(\C#N)C(=O)Nc2c(C)cc(C)cc2C)cc1,,active: 8.2 µM
COc1ccc2nc(-c3ccccc3)cc(C(=O)OCC(=O)NC3CC3)c2c1,,"inconclusive: 2.31 µM [activator, partial curve, poor fit]"
CCc1ccc(NC(=O)CSc2nc(=O)n(CCN(C)C)c3c2CCCC3)cc1,inactive: -1.43%,
CC(C)N(C(=O)Cn1cc(SCC(=O)NCC2CCCO2)c2ccccc21)C(C)C (configuration not stated),,"inconclusive: 9.2 µM [activator, partial curve, poor fit]"
O=C(CNc1ccccc1)N/N=C/c1c(O)ccc2ccccc12,,"inconclusive: 9.2 µM [activator, partial curve]"
CS(=O)(=O)c1ccc(-c2cccc(NC(=O)COc3ccc(Cl)cc3)c2)nn1,,"inconclusive: 32.6 µM [activator, partial curve, poor fit]"
COc1ccc(/C=C/C(=O)c2cc(Br)ccc2OC(=O)c2ccco2)cc1OC,,"inconclusive: 10.3 µM [activator, partial curve, poor fit]"
COc1ccc(C2=NN(C(=O)CCCC(=O)O)C(c3cn(-c4ccccc4)nc3-c3ccccc3)C2)cc1 (configuration not stated),,"inconclusive: 0.116 µM [activator, full curve, poor fit]"
Cc1ccc(-c2nc(CS(=O)(=O)CC(=O)N3CCCCCC3)c(C)o2)cc1,inactive: 2.92%,
COc1ccc(NC(=O)CSc2nc3c(c(=O)n2C)SCC3)cc1OC,,"inconclusive: 18.4 µM [activator, single point]"
COc1ccc(/C=C2\SC(=S)N(CCCC(=O)N3CCCCC3CCO)C2=O)cc1 (configuration not stated),,"inconclusive: 18.4 µM [activator, single point]"
COCc1c(C(=O)NCCc2ccc(OC(F)F)cc2)oc2ccccc12,inactive: 7.83%,
O=C(CSc1nc2cc(Cl)ccc2s1)NC1CCCc2ccccc21 (configuration not stated),inactive: -3.66%,

Compound,re-replication activation,Potency
CC(C)[C@H](NC(N)=O)C(=O)NCCc1ccc(Cl)cc1,,"inconclusive: 32.6 µM [activator, partial curve, poor fit]"
CCCCC(C(=O)NC1CCCC1)N(C(=O)c1snc(C(N)=O)c1N)c1ccc(C)cc1 (configuration not stated),inactive: 12.1%,
COC(=O)c1sccc1N(C)S(C)(=O)=O,,"inconclusive: 6.51 µM [activator, single point]"
COc1cc2nc(Nc3ccc(C)c(C)c3)nc(N)c2cc1OC,,"inconclusive: 23.1 µM [activator, single point]"
O=Nc1nc2ncccn2c1-c1ccccc1,,active: 9.2 µM
COc1cc2[nH]c(=S)nc(NCCc3ccc(C)cc3)c2cc1OC,,"inconclusive: 29.1 µM [activator, single point]"
COc1cc(/C=N/NC(=O)COc2cccc(F)c2)ccc1OS(=O)(=O)c1ccc(C)cc1,,"inconclusive: 23.1 µM [activator, partial curve, poor fit]"
CCOC(=O)CSC1=C(C#N)C(c2ccc(C)cc2)C(C(=O)OC)C(=O)N1 (configuration not stated),inactive: -7.6% [at 9.22 µM],
CCOc1ccc(S(=O)(=O)Nc2cccc(C(=O)NCCCn3ccnc3)c2)cc1,inactive: -17.3%,
O=c1c2c(nc3c(-c4ccc(Cl)cc4)c[nH]n13)CCC2,,"inconclusive: 14.6 µM [activator, partial curve]"
Cc1cccc(C(=O)Oc2c(Br)cc(Br)cc2/C=N/NC(=O)c2ccncc2)c1,inactive: 2.13%,
CC(C)NC(=O)N(C)C[C@H]1Oc2ccc(NC(=O)Cc3ccccc3)cc2C(=O)N([C@H](C)CO)C[C@@H]1C,inactive: -40.9% [at 9.22 µM],
O=c1oc2c(O)c(O)cc3c(=O)oc4c(O)c(O)cc1c4c23,,"inactive and inconclusive: 31.2 µM [activator, single point]"
Cc1cccc(N2CN=c3s/c(=C\c4ccncc4)c(=O)n3C2)c1,inactive: -0.64%,
CCOC(=O)CNC(=S)SC,inactive: 254%,
COc1ccc(C)cc1NC(=O)C1CCN(S(C)(=O)=O)CC1,,"inconclusive: 6.51 µM [activator, partial curve, poor fit]"
N#C/C(=C\c1ccccc1[N+](=O)[O-])C(=O)NCc1ccccc1,,"inconclusive: 25.9 µM [activator, single point]"
O=C(Cn1c(C(F)(F)F)nc2ccccc21)N1CCCC1,inactive: -2.5%,
O=C1c2cnc3nc(SCc4ccc(Cl)cc4)nn3c2CC2c3ccccc3CCN12 (configuration not stated),,"inconclusive: 8.2 µM [activator, single point]"
CCOC(=O)C(CC)(CC)C(=O)/C=C/c1ccc(Br)cc1,,"inconclusive: 29.1 µM [activator, single point]"
OC(c1ccccn1)C(O)c1ccccn1 (configuration not stated),,"inconclusive: 29.1 µM [activator, partial curve, poor fit]"
O=C(N/N=C/C(Br)=C/c1ccccc1)NC1CCCCC1,,"inconclusive: 23.1 µM [activator, single point]"
CCOC(=O)N1CCN(CCC(=O)Nc2ccc(C)cc2)CC1,inactive: -4.44%,

# Among those listed so far, 2 have an NH in an aromatic ring.
Compound,re-replication activation,Potency
COc1cc2[nH]c(=S)nc(NCCc3ccc(C)cc3)c2cc1OC,,"inconclusive: 29.1 µM [activator, single point]"
O=c1c2c(nc3c(-c4ccc(Cl)cc4)c[nH]n13)CCC2,,"inconclusive: 14.6 µM [activator, partial curve]"

# (further entries)

Compound,re-replication activation,Potency
COc1ccc(-n2nnnc2S(=O)(=O)Cc2ccc(C(=O)O)cc2)cc1,,active: 7.31 µM
NS(=O)(=O)c1ccc(NC(=O)COC(=O)/C(=C/c2cccs2)c2cccs2)cc1,,"inconclusive: 29.1 µM [activator, single point]"
Cc1noc(C)c1CN1C(=O)c2cccc([N+](=O)[O-])c2C1=O,,"inconclusive: 32.6 µM [activator, partial curve, poor fit]"
O=C(N/N=C/c1ccc2c(c1)OCO2)c1ccc(COCC(F)(F)C(F)F)cc1,,active: 6.51 µM
O=C(/C(C=Nc1ccc(F)cc1)=C(/O)c1ccco1)C(F)(F)F,,"inconclusive: 2.31 µM [activator, single point]"
O=C(c1ccccc1NS(=O)(=O)c1ccc([N+](=O)[O-])cc1[N+](=O)[O-])N1O[C@@H]2C=C[C@H]1C2,,"inconclusive: 20.6 µM [activator, single point]"
COC(=O)C1=C(N)Oc2cc(C)n(CC3CCCO3)c(=O)c2C1c1ccc(Cl)c(Cl)c1 (configuration not stated),,"inconclusive: 11.6 µM [activator, partial curve, poor fit]"
COc1ccc(-c2nc3ccc(Cl)cn3c2NC2CCCCC2)cc1SC1CCCCC1,inactive: -0.67%,
CC(=O)c1ccccc1OCCCCN1CCCCC1,,"inconclusive: 14.6 µM [activator, single point]"
CCOc1cc(CNc2ccc(S(N)(=O)=O)cc2)cc(Cl)c1OC,,"inconclusive: 3.66 µM [activator, partial curve, poor fit]"
CC(C)OC(=O)CCCCCN1C(=O)CSC1=S,inactive: -0.267%,
COc1cc(O)c(C(=O)O)c(CCc2ccccc2)c1,,"inconclusive: 29.1 µM [activator, single point]"
Cc1nc2c(cc1C#N)C(=O)c1ccccc1-2,,"inconclusive: 5.8 µM [activator, partial curve, poor fit]"
O=C(O)c1ccc(-c2noc(-c3cccc(Cl)c3)n2)cc1,,"inconclusive: 0.0046 µM [activator, full curve, poor fit]"
O=c1[nH]cc(S(=O)(=O)Nc2ccc3c(c2)OCO3)c(=O)[nH]1,,"inconclusive: 0.146 µM [activator, full curve, poor fit]"
O=C(NCc1ccco1)c1ccc2nccnc2c1,inactive: -12.7%,
CCOc1ccc(OCC)c(Nc2cc(C)nc3nc(C)nn23)c1,,"inconclusive: 29.1 µM [activator, single point]"
COc1ccc(CNC(=O)CCNS(=O)(=O)c2cc(Br)cnc2N)cc1,,"inconclusive: 23.1 µM [activator, single point]"
Cc1cc(/C=C2\C(=N)N3N=C(C(C)C)SC3=NC2=O)c(C)n1-c1ccccc1,,"inconclusive: 0.731 µM [activator, partial curve, poor fit]"
CC1CCCCC1NC(=O)/C(C#N)=C/c1ccc2c(c1)OCCO2 (configuration not stated),,"inconclusive: 20.6 µM [activator, single point]"
CCCC(=O)Nc1ccc(NC(=S)NC(=O)c2ccccc2[N+](=O)[O-])cc1,,"inconclusive: 29.1 µM [activator, single point]"
